Results reported in patent publication US20080153888A1, “ALPHA-2-DELTA LIGAND/NSAID THERAPEUTIC TREATMENT OF LOWER URINARY TRACT DISORDERS” (Recordati Ireland Limited, priority 2006, published 2008).

Tested on: anesthetized rats with acetic acid bladder infusion (animal model of overactive bladder)
Assay: Cystometry in anesthetized rats with acetic acid bladder infusion;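 further: Single-filling cystometrograms via bladder-dome catheter, basal values taken after 60 min saline infusion, BVC as mL infused until micturition, MP as peak intravesical pressure (mm Hg)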
Format: in vivo, rat
Conditions: single drug; for % Bladder Volume Capacity (vs basal) ± S.E.: cumulative administration

## COc1ccc2cc([C@H](C)C(=O)O)ccc2c1 [Naproxen, naproxen]
Dose 0.3 mg/kg i.v.
  % Bladder Volume Capacity (vs basal) ± S.E.: 29 ± 8%
Dose 1.0 mg/kg i.v.
  % Bladder Volume Capacity (vs basal) ± S.E.: 36 ± 8%
Dose 3 mg/kg i.v.
  % Bladder Volume Capacity (vs basal) ± S.E.: 41 ± 7%
Dose 10 mg/kg i.v.
  % Bladder Volume Capacity (vs basal) ± S.E.: 48 ± 11%
Dose 30 mg/kg i.v.
  % Bladder Volume Capacity (vs basal) ± S.E.: 60 ± 12%
i.v., cumulative dose-response
  ED60 (CL 95%) of recovery of Bladder Volume Capacity to basal value: 44.7 (0.8-88.6)
